Among the data in article PMC5882868 are binding values, retold here.

Protein sequences, listed by entry. Tags and fused reporters are not part of them.
UniProt Q63746: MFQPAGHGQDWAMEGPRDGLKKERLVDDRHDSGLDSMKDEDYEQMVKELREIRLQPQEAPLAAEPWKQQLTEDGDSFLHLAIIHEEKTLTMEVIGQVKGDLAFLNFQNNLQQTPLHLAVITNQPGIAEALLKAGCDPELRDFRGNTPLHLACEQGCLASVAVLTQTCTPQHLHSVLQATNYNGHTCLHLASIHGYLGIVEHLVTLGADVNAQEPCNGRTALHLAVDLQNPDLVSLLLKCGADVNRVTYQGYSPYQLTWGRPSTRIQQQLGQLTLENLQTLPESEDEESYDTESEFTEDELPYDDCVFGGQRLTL
UniProt P29066: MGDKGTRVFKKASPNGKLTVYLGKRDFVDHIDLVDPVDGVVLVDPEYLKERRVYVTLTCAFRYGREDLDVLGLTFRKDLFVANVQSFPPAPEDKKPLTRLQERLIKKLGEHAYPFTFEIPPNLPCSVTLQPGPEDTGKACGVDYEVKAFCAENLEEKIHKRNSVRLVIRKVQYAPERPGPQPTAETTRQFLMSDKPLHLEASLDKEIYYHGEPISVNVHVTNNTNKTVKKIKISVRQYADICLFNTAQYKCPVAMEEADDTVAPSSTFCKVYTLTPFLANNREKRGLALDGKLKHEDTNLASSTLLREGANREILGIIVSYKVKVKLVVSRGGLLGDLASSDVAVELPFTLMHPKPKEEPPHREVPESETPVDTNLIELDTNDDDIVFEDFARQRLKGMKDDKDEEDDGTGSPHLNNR

Results are given in words; binding and its absence hold for the method and conditions named. Binding seen in cells or lysates may run through a third protein. Some results given as binding are weak or reduced against the parent protein; the word gives no strength.

The test has as its target IκB-α (rat (endogenous in RVLM tissue)) (UniProt Q63746). Put plainly: co-IP; RVLM tissue lysates of four groups (WKY or SHR, each with AAV-GFP or AAV-Arrb1); legend: IP by anti-IκBα antibody, Western blot by anti-β-arrestin1 antibody; Protein A/G plus agarose beads, antibody overnight at 4°C.

Regarding β-arrestin1 (from UniProt P29066 1-418), the binding entry was “binds”.
